Measurements: patent publication US12016874B2, “Methods and compositions for treating carbapenem-resistant klebsiella pneumoniae infections” (City University of Hong Kong, priority 2022, dated 2024)
For at least one compound, name, drawing or mass did not settle the structure.

Legend:
Type in all cases: cell-based, K. pneumoniae
CR-HvKP 1 [1] = test: String test on sheep blood agar; details: drug alone
Method: 1. A series of tests were performed according to the following process. CR-HvKP 1 was inoculated onto the agar plate containing 5% sheep blood and different drugs and cultured overnight at 37° C. The series test refers to a test in which viscous strings greater than 5 mm in length are formed when a single colony is stretched with a standard bacteriological inoculating loop, which can be considered a virulent strain of a high-viscosity phenotype.

rmpA2 = test: Virulence gene expression by qRT-PCR; details: drug alone
CR-HvKP 1 [2] = test: Mucoviscosity assay; details: drug alone, OD600 of supernatant
Method: 2. Mucoviscosity assay: The overnight culture of CR-HvKP 1 was re-inoculated into fresh LB broth to produce a bacterial broth with an OD600 of 0.3. Different drugs were then added and cultured with shaking at 37° C. for 6 hours. The culture was then diluted to an OD600 of 1.0 and centrifuged at 1,000×g for 2 minutes before the supernatant was obtained for OD600 measurement.

`CO[C@H]1/C=C/O[C@@]2(C)Oc3c(C)c(O)c4c(O)c(c(/C=N/N5CCN(C)CC5)c(O)c4c3C2=O)NC(=O)/C(C)=C\C=C\[C@H](C)[C@H](O)[C@@H](C)[C@@H](O)[C@@H](C)[C@H](OC(C)=O)[C@@H]1C` [rifampicin] was tested, and the string length (CR-HvKP 1 [1]) was “reduce”, the “expression of bacterial virulence factor rmpA2” value (rmpA2) was “inhibition” and the hypermucoviscosity (CR-HvKP 1 [2]) was “reduce”.
